Reference: PubChem BioAssay AID2685 (National Center for Advancing Translational Sciences (NCATS), 2010)
The other results are listed elsewhere or left out. Shown are side measurements of this screen, not its main read-out; they come without a call. Compounds called inactive in the main read-out are mostly missing here. Words in brackets tell the shape of the fitted curve; partial curves, single points and poor fits give uncertain potencies.

Test: qHTS Assay for Lipid Storage Modulators in Drosophila S3 Cells;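 for cell number change: cells counted by Cell Tracker Red CMTPX staining in the red channel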
Details: BODIPY lipid droplet fluorescence, 18-24 h; for cell number change: measured here: cell count max response, cells fed with added oleic acid
Outline: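 Drosophila S3 cells loaded with oleic acid (400 uM, as added) and compounds at several concentrations; lipid droplets imaged by 488-nm laser-scanning cytometry, 500–530 nm intensity and object ratio to cell channel. Percent activity normalized to 20 uM Triacsin C.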

[1] = measured here: lipid fluorescence (Fed channel) AC50, cells fed with added oleic acid
[2] = measured here: cell number channel AC50, cells fed with added oleic acid

Row | Structure (SMILES) | cell number change [%] | AC50 [1] | AC50 [2]
1 | O=C(COc1cccc(C(F)(F)F)c1)Nc1ccc(S(=O)(=O)N2CCCCC2)cc1 | -27.4 | 20.6 µM [falling, single point] | 
2 | CCCCOc1ccc(C(=O)Nn2cnnc2)cc1 | 1.27 |  | 
3 | COC(=O)c1cc(NC(=O)CSc2ncn[nH]2)ccc1Cl | 0.829 | 29.1 µM [rising, single point] | 
4 | Cc1cc(OCC(=O)N[C@@H](CSCc2ccccc2)C(=O)O)c2c(C)c(C)c(=O)oc2c1 | 19.4 | 29.1 µM [rising, single point] | 
5 | NC(=O)c1ccc(NS(=O)(=O)c2ccc(Br)s2)cc1 | -6.1 | 0.00651 µM [falling, full curve, poor fit] | 
6 | CC(C)OCCCNC(=O)c1ccc(NC(=O)C2=CSCCO2)cc1 |  | 20.6 µM [falling, single point] | 
7 | COc1cccc(CN2CCNC(=O)C2CC(=O)NC2CCCCCCC2)c1 (configuration not stated) | 31.8 |  | 
8 | COc1ccccc1CN1CCCC(CNC(=O)c2cccc3ccccc23)C1 (configuration not stated) | 9.09 |  | 
9 | CSc1nnc(C2CCN(CC(=O)Nc3ccccc3N3CCOCC3)CC2)n1C(C)C | -4.17 |  | 
10 | CC1CCCC(NC(=O)c2ccc(COc3ccccc3)o2)C1C (configuration not stated) | -11.9 |  | 
11 | Cc1cc(C(=O)COC(=O)c2ccc(O)cc2O)c(C)n1C(C)C | -1.13 | 0.13 µM [rising, full curve, poor fit] | 
12 | COc1cccc2[nH]c3c(N4CC(C)CC(C)C4)ncnc3c12 (configuration not stated) | -63.4 | 3.66 µM [falling, full curve] | 5.8 µM [falling, partial curve]
13 | O=C(COC(=O)C12CC3CC(CC(C3)C1)C2)Nc1ncc(Cl)cc1Cl | -41.8 | 29.1 µM [falling, single point] | 8.2 µM [falling, partial curve, poor fit]
14 | CC(C)c1ccc(NC(=O)CCNC(=O)Cn2ccc3ccccc3c2=O)cc1 | 290 | 3.66 µM [rising, full curve] | 25.9 µM [rising, single point]
15 | COc1ccc(N2CC(C(=O)N[C@H](C(=O)NC3CCCCC3)C(C)C)CC2=O)cc1 (some centres not stated) | 43.6 |  | 32.6 µM [rising, single point]
16 | O=C(Cc1c[nH]c2ccccc12)OCCOC(=O)Cc1c[nH]c2ccccc12 | -37 | 16.4 µM [falling, single point] | 14.6 µM [falling, single point]
17 | CC(=O)Nc1ccc(S(=O)(=O)NCCN2CCOCC2)cc1 | 1.51 |  | 
18 | O=C1c2ccccc2C(=O)N1CCCCN(C(=O)c1cc2ccccc2oc1=O)c1ccc(F)cc1F | -2.37 | 25.9 µM [rising, single point] | 
19 | CCOc1cc(/C=C/C(=O)O)ccc1OCCOc1ccc(F)cc1 | -20.8 | 0.326 µM [falling, full curve] | 0.146 µM [falling, full curve, poor fit]
20 | CCOCCCNC(=S)Nc1ccc2nc3n(c(=O)c2c1)CCCCC3 |  | 2.06 µM [rising, partial curve] | 2.31 µM [rising, partial curve]
21 | O=C(CCCC(=O)c1ccc(F)cc1)c1ccc(F)cc1 | 12.7 | 0.58 µM [rising, full curve, poor fit] | 

Rewritten tab-delimited: part of the list above.
Row	Structure (SMILES)	cell number change [%]	AC50 [1]	AC50 [2]
8	COc1ccccc1CN1CCCC(CNC(=O)c2cccc3ccccc23)C1 (configuration not stated)	9.09		
9	CSc1nnc(C2CCN(CC(=O)Nc3ccccc3N3CCOCC3)CC2)n1C(C)C	-4.17		
10	CC1CCCC(NC(=O)c2ccc(COc3ccccc3)o2)C1C (configuration not stated)	-11.9		

(continued)

Row | Structure (SMILES) | cell number change [%] | AC50 [1] | AC50 [2]
22 | O=C(OCc1cccc(Cl)c1)c1cc(S(=O)(=O)N2CCCCC2)ccc1N1CCOCC1 | -17.8 | 29.1 µM [rising, single point] | 
23 | COc1ccc(NC(=O)Cn2c(-c3ccc(OC)cc3)cn(-c3ccc(C)cc3)c2=O)cc1 | 26.2 | 5.8 µM [rising, partial curve] | 
24 | O=C(CC1(O)C(=O)N(Cc2ccccc2)c2ccccc21)c1ccncc1 (configuration not stated) | 7.26 |  | 
25 | CN1C(=O)CSC1=Nc1cccc(C(=O)O)c1 | 4.76 |  | 
26 | Cc1cccc(NC(=O)C2CCN(c3ncnc4c3nc3n4CCCCC3)CC2)n1 | -24.1 | 6.51 µM [falling, single point] | 
27 | COc1ccc(C(=O)Nc2cccc(-c3ccc(N4CCOCC4)nn3)c2)cc1 |  | 4.11 µM [falling, single point] | 
28 | COc1ccc([N+](=O)[O-])cc1NCC(=O)Nc1cccc(S(=O)(=O)N2CCCC2)c1 | -6.02 |  | 
29 | CCOC(=O)c1ccc(NC(=O)Cn2c(C)nc3c(sc(=S)n3CC)c2=O)cc1 | 16.2 |  | 
30 | CCOC(=O)[C@H]1[C@H]2COc3ccc(Cl)cc3[C@@H]2N2C(=O)c3ccc(C)cc3NC(=O)[C@@]12C | 9.17 | 14.6 µM [rising, partial curve, poor fit] | 
31 | CCOc1ccc(-c2c(C(=O)N/N=C/c3cccs3)nnn2-c2nonc2N)cc1 |  | 29.1 µM [rising, single point] | 
32 | O=C(CSc1nnc(-c2cccnc2)o1)OC1CCCCC1 | -194 | 29.1 µM [falling, single point] | 29.1 µM [falling, single point]
33 | COc1ccc(N2C(=O)c3ccc(C(=O)Nc4ccccc4OC)cc3C2=O)cc1 | -13.8 |  | 
34 | O=C(O)c1cccc(NS(=O)(=O)c2ccc3nnn(O)c3c2)c1 | -30 | 2.91 µM [falling, full curve] | 3.26 µM [falling, full curve]
35 | O=C(N/N=C/c1cc(Br)c(O)c(Br)c1)C1CC1 | -5.13 | 29.1 µM [falling, single point] | 
36 | CN(Cc1nc2ccccc2s1)C(=O)c1ccc(F)cc1 | 32.1 | 1.16 µM [rising, single point] | 0.13 µM [rising, full curve]
37 | CCN(C(=O)COC(=O)c1sccc1C)c1c(N)n(Cc2ccccc2)c(=O)[nH]c1=O | -41 |  | 29.1 µM [falling, partial curve, poor fit]
38 | Cc1ccccc1C[n+]1cccc2ccccc21 | 2.3 | 1.84 µM [rising, partial curve] | 
39 | Cc1cc(/C=N/NC(=O)C(=O)NCc2ccccn2)c(C)n1-c1cccc(Br)c1 | -9.02 | 6.51 µM [rising, single point] | 0.82 µM [falling, single point]
40 | Cc1ccc(Cl)c(OC(=O)Cn2cnc3c2c(=O)n(C)c(=O)n3C)c1 | 28 | 2.06 µM [rising, partial curve, poor fit] | 
41 | Cc1ccc(NC(=S)/C(=C(\[O-])c2ccc(F)cc2)[n+]2ccccc2)cc1 |  | 0.082 µM [rising, partial curve, poor fit] | 
42 | NC(=S)NNC(=O)C12CC3CC(CC(C3)C1)C2 |  | 29.1 µM [rising, single point] | 

Compounds listed so far that have two or more sulfur atoms (two):
Row | Structure (SMILES) | cell number change [%] | AC50 [1] | AC50 [2]
5 | NC(=O)c1ccc(NS(=O)(=O)c2ccc(Br)s2)cc1 | -6.1 | 0.00651 µM [falling, full curve, poor fit] | 
29 | CCOC(=O)c1ccc(NC(=O)Cn2c(C)nc3c(sc(=S)n3CC)c2=O)cc1 | 16.2 |  | 

(further entries)

Row | Structure (SMILES) | cell number change [%] | AC50 [1] | AC50 [2]
43 | COc1ccc(C(=O)c2ccc(OC)c(Br)c2)cc1Br | -24.4 | 0.461 µM [falling, full curve, poor fit] | 4.61 µM [falling, full curve, poor fit]
44 | CC(C)CN1CCC(=O)N(CCSc2ccccc2)CC1 | -9.88 |  | 
45 | CCCCN1C(=O)CC(Sc2ncccc2C(=O)O)C1=O (configuration not stated) | -45.2 |  | 16.4 µM [falling, single point]
46 | Cc1ccc(S(=O)(=O)CC(=O)NC(C)c2ccccc2)cc1 (configuration not stated) |  | 2.06 µM [rising, partial curve] | 
47 | Cc1ccc(NC(=O)c2ccc(C#CC3(O)CCCCC3)cc2)cc1C | 42.2 | 1.64 µM [falling, partial curve] | 
48 | Cc1cc(C)c(NC(=O)CS(=O)CC(=O)Nc2ccc(N3CCOCC3)cc2)c(C)c1 (configuration not stated) | 1.21 | 0.731 µM [rising, single point] | 
49 | CCNS(=O)(=O)c1cc(Br)ccc1OC | -171 |  | 29.1 µM [falling, single point]
50 | CCN(CC)CCNC(=S)Nc1ccc2nc(N3CCN(CC)CC3)cc(C)c2c1 | 59.5 |  | 
51 | Cc1ccc(NC(=O)CSc2ncccc2C(=O)Oc2cccc([N+](=O)[O-])c2)cc1Cl | -21.3 |  | 0.00461 µM [falling, full curve, poor fit]
52 | CC1(C)CC(CC(=O)O)C(=O)O1 (configuration not stated) | 17.6 | 14.6 µM [falling, partial curve, poor fit] | 
53 | Cc1ccc(OCC(=O)N(Cc2nnc(-c3ccccc3Cl)o2)C2CC2)cc1C | -4.28 | 0.326 µM [rising, full curve] | 
54 | CCOC(=O)c1c(C)c(-c2ccccc2)n(CC(=O)N2CCCC2)c1C | -13.5 | 23.1 µM [falling, partial curve] | 0.731 µM [falling, single point]
55 | COc1ccccc1-c1c(C)nn2c(N)c(-c3ccccc3)cnc12 | 30.3 |  | 29.1 µM [rising, single point]
56 | O=C(CN1C(=O)/C(=C/c2ccco2)SC1=S)Nc1ccc(O)c(C(=O)O)c1 | -36.3 |  | 32.6 µM [falling, single point]
57 | CSc1ncccc1C(=O)OCC(=O)N1CCOCC1 | -12.1 | 29.1 µM [falling, single point] | 
58 | COc1cccc(CNC(=O)Cc2ccc(S(=O)(=O)N3CCOCC3)s2)c1 |  |  | 0.731 µM [rising, single point]
59 | COc1ccc(-n2c(COc3cccc4ccccc34)nnc2SCC#N)cc1 | -43.8 | 29.1 µM [falling, single point] | 23.1 µM [falling, single point]
60 | O=C(COc1ccccc1Cl)NNC(=O)c1ccc2nc[nH]c2c1 | -10.8 |  | 
61 | O=C(Cn1nnc(-c2ccccc2)n1)N=Nc1c(O)[nH]c2ccccc12 |  | 2.31 µM [rising, partial curve, poor fit] | 
